Experiment [1] concerns HSkMC (human skeletal muscle cells). In words: cytotoxicity call (relative viability < 0.9). As to conditions: 10 µM.
Experiment [2] relates to HepG2. The experiment is described as follows: cytotoxicity call (relative viability < 0.9). As to conditions: 10 µM.

What follows is the remainder of the data, with few or none of the hits.

Drawing on the antibiotic and cytotoxicity screens of Wong et al. (2023), this text covers cytotoxicity call for one compound.

On to `CC(C)(C)c1ccc(O)cc1`, for which the cytotoxicity call in experiment [1] and in experiment [2] was “inactive” throughout.
